{"source": "PubChem BioAssay AID686937 (Drosophila RNAi Screening Center, 2013)", "aim": "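Genes in the fly needed for secretion of protein constitutively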 (primary screen)", "cell system": "Drosophila S2 cells expressing secreted horseradish peroxidase", "reagent": "long dsRNA against Drosophila genes", "duration": "about 5.5 days (5 days dsRNA, then 12 h reporter induction)", "conditions": "reporter expression induced after 5 days of dsRNA, read 12 h later; inducer not stated", "measurement": "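Chemiluminescent measurement of peroxidase in the medium 12 h after reporter induction, following 5 days of dsRNA, given as a z-score per plate; higher means more secretion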", "scale": "z-score: higher = more reporter secreted into medium", "note": "The deposit covers about 23,000 reagents; shown is a random part of those with a known target gene and a result. 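Reduced-secretion tags in replicate 1 do not always agree with the z-scores; no criterion for assigning the tags was given.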 The numbers tell different reagents against one gene apart. Names joined by + are all predicted targets of the reagent. Not all columns of the deposit are shown. Reagent sequences are not shown. Not given: the amount of reagent."}
{"gene knocked down": "CG5493 + CG5327", "reagent": 1, "z-score, replicate 1": 0.41}
{"gene knocked down": "CG42288", "reagent": 1, "z-score, replicate 1": 0.44}
{"gene knocked down": "CG3376", "reagent": 1, "z-score, replicate 1": 0.16}
{"gene knocked down": "Golgin97 (Golgin 97)", "reagent": 1, "z-score, replicate 1": 0.49}
{"gene knocked down": "St2 (Sulfotransferase 2)", "reagent": 1, "z-score, replicate 1": -0.58}
{"gene knocked down": "St2 (Sulfotransferase 2)", "reagent": 2, "z-score, replicate 1": -0.62}
{"gene knocked down": "CG42238", "reagent": 1, "z-score, replicate 1": 0.71}
{"gene knocked down": "kn (knot)", "reagent": 1, "z-score, replicate 1": 0.41}
{"gene knocked down": "kn (knot)", "reagent": 2, "z-score, replicate 1": 0.02}
{"gene knocked down": "kn (knot)", "reagent": 3, "z-score, replicate 1": -0.13}
{"gene knocked down": "kn (knot)", "reagent": 4, "z-score, replicate 1": 0.17}
{"gene knocked down": "kn (knot)", "reagent": 5, "z-score, replicate 1": -0.24}
{"gene knocked down": "Cyp308a1 (Cytochrome P450 308a1)", "reagent": 1, "z-score, replicate 1": -0.03}
{"gene knocked down": "CG5565", "reagent": 1, "z-score, replicate 1": 0.19}
{"gene knocked down": "CG33937 (retired record)", "reagent": 1, "z-score, replicate 1": 0.31}
{"gene knocked down": "Glut4EF (Glucose transporter 4 enhancer factor)", "reagent": 1, "z-score, replicate 1": -0.71}
{"gene knocked down": "Glut4EF (Glucose transporter 4 enhancer factor)", "reagent": 2, "z-score, replicate 1": 0.17}
{"gene knocked down": "Glut4EF (Glucose transporter 4 enhancer factor)", "reagent": 3, "z-score, replicate 1": 0.2}
{"gene knocked down": "Glut4EF (Glucose transporter 4 enhancer factor)", "reagent": 4, "z-score, replicate 1": 0.04}
{"gene knocked down": "Glut4EF (Glucose transporter 4 enhancer factor)", "reagent": 5, "z-score, replicate 1": 0.08}
{"gene knocked down": "Dora (Dorado)", "reagent": 1, "z-score, replicate 1": 0.41}
{"gene knocked down": "Dora (Dorado)", "reagent": 2, "z-score, replicate 1": 0.09}
{"gene knocked down": "Dora (Dorado)", "reagent": 3, "z-score, replicate 1": -0.17}
{"gene knocked down": "Dora (Dorado)", "reagent": 4, "z-score, replicate 1": -0.85}
{"gene knocked down": "Cpr65Ax2 + Cpr65Ax1", "reagent": 1, "z-score, replicate 1": 0.35}
{"gene knocked down": "Cpr65Ax2 + Cpr65Ax1", "reagent": 2, "z-score, replicate 1": 0.28}
{"gene knocked down": "euc (eucalyptus)", "reagent": 1, "z-score, replicate 1": 0.37}
{"gene knocked down": "CG13933", "reagent": 1, "z-score, replicate 1": 0.12}
{"gene knocked down": "Ir20a (Ionotropic receptor 20a)", "reagent": 1, "z-score, replicate 1": 0.5}
{"gene knocked down": "CG12012", "reagent": 1, "z-score, replicate 1": 0.09}
{"gene knocked down": "Ntf-2r (Nuclear transport factor-2-related)", "reagent": 1, "z-score, replicate 1": -1.7}
{"gene knocked down": "CG30062", "reagent": 1, "z-score, replicate 1": -0.39}
{"gene knocked down": "CG12376", "reagent": 1, "z-score, replicate 1": 0.2}
{"gene knocked down": "cbt (cabut)", "reagent": 1, "z-score, replicate 1": 0.11}
{"gene knocked down": "Mst84B (Male-specific transcript 84B)", "reagent": 1, "z-score, replicate 1": 0.2}
{"gene knocked down": "CG13251", "reagent": 1, "z-score, replicate 1": 0.06}
{"gene knocked down": "Ugt302K1 (UDP-glycosyltransferase family 302 member K1)", "reagent": 1, "z-score, replicate 1": 0.48}
{"gene knocked down": "CG2712", "reagent": 1, "z-score, replicate 1": 0.46}
{"gene knocked down": "CG10317", "reagent": 1, "z-score, replicate 1": 0.29}
{"gene knocked down": "CG12877", "reagent": 1, "z-score, replicate 1": 0.23}

Ordered by “z-score, replicate 1” (low to high): 2 of the entries above
{"gene knocked down": "kn (knot)", "reagent": 3, "z-score, replicate 1": -0.13}
{"gene knocked down": "kn (knot)", "reagent": 2, "z-score, replicate 1": 0.02}
